Assay results: PubChem BioAssay AID504648 (National Center for Advancing Translational Sciences (NCATS), 2011)
In all, about 390,000 compounds went through this assay and about 610 (0.16%) were called active. Inconclusive means that the source gave no clear call. Such entries were picked first, then a sample of the others. Calls come from the whole dose curve; as a rule, active = well fitted inhibition curve with a large enough effect; inconclusive = small, poorly fitted or top-dose-only effect, or effect the other way, or another doubt; inactive = no such curve, though single readings can be large or run the other way. Potencies of inconclusive entries are doubtful fits and often do not repeat.

Test: Nrf2 qHTS screen for inhibitors: counterscreen for cytotoxicity
Details: A549 ARE-Fluc cells, CellTiter-Fluor viability, 18-24 h; activity change, negative = cytotoxicity: at 46 µM (top of the series)
Text: NIH Molecular Libraries Probe Production Network [MLPCN]
NIH Chemical Genomics Center [NCGC]
Assay Provider: Shyam Biswal, Johns Hopkins University
Nrf2 is a transcription factor that maintains cellular redox homoestasis and protects cells from xenobiotics. Nrf2 binds to the antioxidant response element (ARE) to induce gene expression of a broad spectrum of genes that encode for antioxidants. […] Finding a small molecule that act as an inhibitor of Nrf2 function would represent a novel therapeutic target that could lead to improvement in survival of patients undergoing chemo- and/or radio- therapy.
So here we implemented a counterscreen to weed out the cytotoxic compounds.
1. Shibata, T., et al., Genetic Alteration of Keap1 Confers Constitutive Nrf2 Activation and Resistance to Chemotherapy in Gallbladder Cancer. Gastroenterology, 2008.
2. Sjoblom, T., et al., The consensus coding sequences of human breast and colorectal cancers. Science, 2006. 314(5797): p. 268-74.
NCGC Assay Protocol Summary:
A concentration-response assay was performed with A549 ARE_Fluc cells which are suspended in 5% FBS OPTI-MEM. Five uL were dispensed into 1536-well white TC-treated plate using the Kalypsys dispenser to achieve a density of 5000 cells/well in all columns except column 1. The plate is incubated at 37deg C at 5% CO2 for 2 hours before 23 nL of compounds are added with the Kalypsys pin tool equipped with a 1,536-pin array containing 10-nL slotted pins (FP1S10, 0.457-mm diameter, 50.8 mm long; V&P Scientific). The control compounds Budesonide and Staurosporine are both added at a concentration of 2mM and Budesonide is also added as a 1:10 titration, starting at 200uM, to achieve dose-response. After an 18-24 hour incubation at 37deg C at 5% CO2, 5ul of medium is added to column 1. Afterwards 1ul of 5x of CellTiter-Fluor (Promega) is added to every well. The plate is then incubated at 37deg C at 5% CO2 for 30 minutes before they are read on the ViewLux (Perkin Elmer) for a fluorescent read Ex=405(10)/Em=525(10) for a 3 second exposure, 2x binning, and high gain. Then 3 uL of 3x BugLite is dispensed into all wells and the plate is incubated at ambient room temperature for 15 minutes. Afterwards another ViewLux read is performed using the clear filter to get a luminescent read with the settings of 40 second exposure, 2x binning, and high gain. Cytotoxicity is assessed through the first fluorescent read and then biochemical activity against Nrf2 is measured in the luminescent read.
% is set by controls: 0 for no effect and ±100 for the full control effect; potency is the fitted concentration of half-maximal effect.

| SMILES | activity change, negative = cytotoxicity | Potency |
| --- | --- | --- |
| CC1CCN(C(=O)c2cc3c(=O)n(C)c4cc(Cl)ccc4c3s2)CC1 | inactive: 23.6% | – |
| CCCOc1ccc(-c2nonc2NC(=O)c2ccco2)cc1OCCC | inactive: -0.0889% | – |
| O=C(O)c1cccnc1Nc1ccc(Cl)cc1 | – | inconclusive: 25.9 µM [falling, partial curve, poor fit] |
| CCCCN(C(=O)c1cc2c(s1)CCCCC2)c1c(N)n(CC(C)C)c(=O)[nH]c1=O | – | inconclusive: 20.6 µM [falling, partial curve, poor fit] |
| O=C(CN1CCC(n2nnc3cc(C(F)(F)F)ccc32)CC1)Nc1ccc2c(c1)CCC2 | – | inconclusive: 29.1 µM [falling, single point] |
| O=c1c2cnn(-c3ccc(F)cc3)c2ncn1Cc1ccccc1Cl | inactive: 6.93% | – |
| CCN1C(C)=C(C)S/C1=C1\SC(=S)N(N)C1=O | – | inconclusive: 14.6 µM [falling, partial curve, poor fit] |
| COc1ccc(-c2cn3c(n2)sc2cc(C(=O)NCCC4=CCCCC4)ccc23)cc1 | inactive: 0.236% | – |
| C/C=C/C=C\C(=O)Nc1cccc(C2=NOC3(C2)C[C@@H](C(N)=O)N(C(=O)/C(C)=C/C)C3)c1 (stereo partly drawn) | inactive: -2.09% | – |
| O=C1NC(=O)/C(=C\c2cn(CC(=O)N3CCOCC3)c3ccccc23)S1 | – | inconclusive: 10.3 µM [falling, partial curve, poor fit] |
| CCn1ccnc1CN1CCc2c([nH]c3ccccc23)C1CC(C)C (stereo not drawn) | – | inconclusive: 29.1 µM [falling, single point] |
| O=C(Nc1cccn(Cc2c(Cl)cccc2Cl)c1=O)c1ccc(Cl)cc1Cl | – | inconclusive: 10.3 µM [falling, partial curve, poor fit] |
| COc1ccc(S(=O)(=O)N2CCN(c3ccccc3)CC2)cc1C(=O)N1CCCC1 | inactive: -4.29% | – |
| Cc1onc(-c2ccccc2)c1C(=O)Nc1cc(C(F)(F)F)ccc1N1CCOCC1 | – | inconclusive: 6.51 µM [falling, partial curve, poor fit] |
| Cc1ccc(C)c(NC(=O)Cc2coc3cc(C)cc(C)c23)c1 | inactive: -14% | – |
| O=c1c([N+](=O)[O-])c(O)c2ccccc2n1Cc1ccccc1 | – | inconclusive: 14.6 µM [falling, single point] |
| COc1ccccc1-n1c(C)nc2cc(C(=O)NCCN3CCOCC3)ccc21 | – | inconclusive: 32.6 µM [activator, partial curve, poor fit] |
| Cc1ccc(S(=O)(=O)Nc2ccc3c(c2)C(=O)N([C@H](C)CO)C[C@H](C)[C@@H](CN(C)Cc2ccc(-c4ccccc4)cc2)O3)cc1 | – | inconclusive: 32.6 µM [falling, partial curve, poor fit] |

Quoted from the listing.
Under Potency, O=C(O)c1cccnc1Nc1ccc(Cl)cc1 has inconclusive: 25.9 µM [falling, partial curve, poor fit]
Under Potency, Cc1onc(-c2ccccc2)c1C(=O)Nc1cc(C(F)(F)F)ccc1N1CCOCC1 has inconclusive: 6.51 µM [falling, partial curve, poor fit]
